In patent US20230235090A1:
Numbering of substitutions follows the chain as printed. No constants are given. Whether binding was seen depends on the method and setting. A result given as binding can be weak or reduced; the word gives no strength.

B1: PR001763 (antibody, human IgG1, V domains shown)
VH: EVQLLESGGGLVQPGGSLRLSCTASGFTFSNYAMSWVRQAPEKGLEWVSSISGSGGSTFYADSVKGRFTISRDNSKNTLYLQMNRLTAEDTAVYYCAKEGSNGTDDYHYDIDVWGQGTTVTVSS
B2: PR001774 (antibody, human IgG1, V domains shown)
VH: EVQLVESGGGLVQPGGSLRLSCAASGFTFSSFAMTWVRQAPEKGLEWVSTISGSGDTTYYADSVKGRFTISRDSSKNTLYLQMNSLRAEDSAVYFCAKEATAMASDYYYGVDVWGQGTTVTVSS
B3: PR001780 (antibody, human IgG1, V domains shown)
VH: B2 VH with V5L, V12I, E42G, T57N, S74N, S91T, A100D, M103V, G110N, V111I
B4: PR001764 (antibody, human IgG1, V domains shown)
VH: EVQLLESGGGLVQPGGSLRLSCAASGFTFSSYAMSWVRQAPEKGLEWVSAISGGGGSTYYADSVKGRFTISRDNSKNTLYLQMDSLKAEDTAVYYCAKEGTTETDDYHYNMDVWGQGTTVTVSS
B5: PR001833 (antibody, human IgG1, V domains shown)
VH: B4 VH with A50S, G54S, Y59F, D84N, K87R, Y95F, T101A, Y109F, M111T
B6: PR001758 (antibody, human IgG1, V domains shown)
VH: EVQLLESGGGLVQLGGSLRLSCAASGFTFSRYAMTWVRQAPEKGLEWVSSISGSGDDTYYGDSVKGRFTISRDNSQNTVYLQMNSLRAEDTAVYFCAKEKAGTTGDYYYNVDVWGQGTTVTVSS
B7: PR001781 (antibody, human IgG1, V domains shown)
VH: B6 VH with R31S, D56G, D57N, G61A, Q76K, V79L, F95Y, K100R, A101T
B8: PR001838 (antibody, human IgG1, V domains shown)
VH: EVQLLESGGGLVQPGGSLRLSCAASGFTFSNYAMSWFRQPPETGLKWVSSIDGSGGDTYYADSVKGRFTISRDNSKNTLYLQMNSLRAEDTAVYYCAKEGSHGTDDSHYDVDVWGQGTTVTVSS
B9: PR004469 (antibody, human IgG1, V domains shown)
VH: B8 VH with G53A
B10: PR007381 (antibody, human IgG1, V domains shown)
VH: B8 VH with F37V, P40A, E42G, T43K, K46E, G53A
B11: PR001767 (antibody, human IgG1, V domains shown)
VH: EVQLVETGGGLIQPGGSLRLSCAASGFTVSSNYMSWVRQAPGKGLEWVSVIYSDGSTYYADSVKGRFTISRDNSKNTLYLQMNSLRAEDTAVYYCARDRYYGSGNYPTAYYGMDVRGQGTTVTVSS
B12: PR001842 (antibody, human IgG1, V domains shown)
VH: EVQLLESGGGLVQPGGSLRLSCAASGFTFSSYAMSWGRQAPGKGLEWVSAISGSGGSTYYADSVKGRFTISRDNSKNTLYLHMNSLRAEDTAVYYCAKEKVATTGDYYYDMDVWGQGTTVTVSS

These binders were tested against cynomolgus monkey 4-1BB (cynomolgus monkey) (assay: FACS, CHO-K1/cyno 4-1BB cells [B]).

binding, binds:
B1

The binders below were run against cynomolgus monkey 4-1BB (cynomolgus monkey) (assay: FACS on CHO-K1-cyno 4-1BB cells).

binding, binds:
B2
B3
B4
B5
B6
B7
B1
B8
B9
B10
B11
B12
